Results reported in patent US4880809A, “1,4-disubstituted piperazines (or homopiperazines) as platelet-activating factor antagonists” (Takeda Chemical Industries, Ltd., priority 1987, dated 1989).

Tested on: diabetic nephropathy
Assay: Action Against Diabetic Nephropathy
Assay type: in vivo, Female KKAy mice
Settings: 3 weeks, N 8
Experimental: Female KKAy mice of 10 weeks old were employed. Test animals were administered with the compound of Example 62 for three weeks at doses of 8 and 26 mg/kg/day in admixture with feedstuff. Then, urine was collected from these animals for 24 hours. Urine desalted (filtered urine) by means of a PD-10 column (Pharmacia) was employed to determine the total protein concentration in the urine by using a protein-assay kit (Bio-Rad). The amount ot albumin in the urine was calculated from the relative concentration of albumin to the total protein determined by means of electrophoresis.
Glucose and triglyceride in the plasma were determined by an enzyme method using the Ankol Chemistry System (Baker instruments).

For `COc1cc2c(cc1OC)CCCC(C(=O)N1CCN(C(=O)c3cc(OC)c(OC)c(OC)c3)CC1)=C2` [Example 62, 1-(2,3-dimethoxy-6,7-dihydro-5H-benzocyclohepten-8-ylcarbonyl)-4-(3,4,5-trimethoxybenzoyl)piperazine], which “Body Weight” value (8 mg/kg/day p.o.) is on record?
Its value is 44.8 g.

And the “Body Weight” value (26 mg/kg/day p.o.)?
The value was 43.3 g.
